PubChem BioAssay AID1159593, NIAID – 2016

Aim: 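TLR pathway parts governing NF-kappaB p65 translocation after LPS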
System: RAW264.7 macrophages of mouse, with reporters for p65 (GFP) and the Tnf promoter (mCherry)
Reagents: single siRNA against mouse genes
Timing: 48 to 72 hours after siRNA transfection, then LPS for 40 min
Conditions: LPS (Salmonella minnesota R595) for 40 min before fixation; dose not given
Detection: 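Imaged nuclear over cytoplasmic GFP-p65 intensity after 40 min LPS, normalised per plate by median and MAD, robust z-score versus negative controls, mean of replicates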
Direction: p65 translocation z-score: higher = more nuclear NF-kappaB p65 after LPS
Active means: 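Activity score grows with absolute z: 25 beyond 1, 50 beyond 1.5, 75 beyond 2, 100 beyond 2.5; active calls here sit at about z 1.5 or more either way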
Meaning of the calls: active = changed p65 translocation (either direction); inactive = no clear change
This is an unselected part of 756 deposited reagents. In the full data, 137 (18%) were called active. 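Active means p65 translocation went either up or down; genes were judged on the median of six siRNAs, not single siRNAs.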 Reagents against one gene are numbered here. The record does not give: the amount of reagent.

Egr2 (GeneID 13654) #1 → p65 translocation z-score: -1.15; activity call: inactive
Egr2 (GeneID 13654) #2 → p65 translocation z-score: -0.243; activity call: inactive
Egr2 (GeneID 13654) #3 → p65 translocation z-score: -1.98; activity call: active
Egr2 (GeneID 13654) #4 → p65 translocation z-score: -0.968; activity call: inactive
Egr2 (GeneID 13654) #5 → p65 translocation z-score: 0.838; activity call: inactive
Egr2 (GeneID 13654) #6 → p65 translocation z-score: -1.09; activity call: inactive
Myd88 (GeneID 17874) #1 → p65 translocation z-score: -0.028; activity call: inactive
Myd88 (GeneID 17874) #2 → p65 translocation z-score: -2.17; activity call: active
Myd88 (GeneID 17874) #3 → p65 translocation z-score: -0.498; activity call: inactive
Myd88 (GeneID 17874) #4 → p65 translocation z-score: -1.72; activity call: active
Myd88 (GeneID 17874) #5 → p65 translocation z-score: -1.16; activity call: inactive
Myd88 (GeneID 17874) #6 → p65 translocation z-score: -1.15; activity call: inactive
Il12b (GeneID 16160) #1 → p65 translocation z-score: -0.736; activity call: inactive
Il12b (GeneID 16160) #2 → p65 translocation z-score: 0.992; activity call: inactive
Il12b (GeneID 16160) #3 → p65 translocation z-score: 0.0913; activity call: inactive
Il12b (GeneID 16160) #4 → p65 translocation z-score: -0.591; activity call: inactive
Il12b (GeneID 16160) #5 → p65 translocation z-score: -1.34; activity call: inactive
Il12b (GeneID 16160) #6 → p65 translocation z-score: 0.333; activity call: inactive
Ripk1 (GeneID 19766) #1 → p65 translocation z-score: -1.51; activity call: active
Ripk1 (GeneID 19766) #2 → p65 translocation z-score: 0.13; activity call: inactive
Ripk1 (GeneID 19766) #3 → p65 translocation z-score: 0.676; activity call: inactive
Ripk1 (GeneID 19766) #4 → p65 translocation z-score: -1.4; activity call: inactive
Ripk1 (GeneID 19766) #5 → p65 translocation z-score: 0.673; activity call: inactive
Ripk1 (GeneID 19766) #6 → p65 translocation z-score: 1.47; activity call: inactive

Called active, among the entries above:
Egr2 (GeneID 13654) #3 → p65 translocation z-score: -1.98; activity call: active
Myd88 (GeneID 17874) #2 → p65 translocation z-score: -2.17; activity call: active
Myd88 (GeneID 17874) #4 → p65 translocation z-score: -1.72; activity call: active
Ripk1 (GeneID 19766) #1 → p65 translocation z-score: -1.51; activity call: active

The listing continues:
Casp8 (GeneID 12370) #1 → p65 translocation z-score: 0.864; activity call: inactive
Casp8 (GeneID 12370) #2 → p65 translocation z-score: -1.22; activity call: inactive
Casp8 (GeneID 12370) #3 → p65 translocation z-score: -0.908; activity call: inactive
Casp8 (GeneID 12370) #4 → p65 translocation z-score: 0.32; activity call: inactive
Casp8 (GeneID 12370) #5 → p65 translocation z-score: -3.43; activity call: active
Casp8 (GeneID 12370) #6 → p65 translocation z-score: -0.774; activity call: inactive
Atf2 (GeneID 11909) #1 → p65 translocation z-score: -1.38; activity call: inactive
Atf2 (GeneID 11909) #2 → p65 translocation z-score: -0.87; activity call: inactive
Atf2 (GeneID 11909) #3 → p65 translocation z-score: 0.105; activity call: inactive
Atf2 (GeneID 11909) #4 → p65 translocation z-score: -1.35; activity call: inactive
Atf2 (GeneID 11909) #5 → p65 translocation z-score: 0.816; activity call: inactive
Atf2 (GeneID 11909) #6 → p65 translocation z-score: 0.443; activity call: inactive
Ifnb1 (GeneID 15977) #1 → p65 translocation z-score: 1.19; activity call: inactive
Ifnb1 (GeneID 15977) #2 → p65 translocation z-score: 0.122; activity call: inactive
Ifnb1 (GeneID 15977) #3 → p65 translocation z-score: -1.51; activity call: active
Ifnb1 (GeneID 15977) #4 → p65 translocation z-score: -0.227; activity call: inactive
Ifnb1 (GeneID 15977) #5 → p65 translocation z-score: -0.62; activity call: inactive
Ifnb1 (GeneID 15977) #6 → p65 translocation z-score: -0.545; activity call: inactive
Cyld (GeneID 74256) #1 → p65 translocation z-score: 0.654; activity call: inactive
Cyld (GeneID 74256) #2 → p65 translocation z-score: -0.878; activity call: inactive
Cyld (GeneID 74256) #3 → p65 translocation z-score: 0.273; activity call: inactive
Cyld (GeneID 74256) #4 → p65 translocation z-score: -0.352; activity call: inactive
Cyld (GeneID 74256) #5 → p65 translocation z-score: -0.577; activity call: inactive
Cyld (GeneID 74256) #6 → p65 translocation z-score: -0.134; activity call: inactive
Tbkbp1 (GeneID 73174) #1 → p65 translocation z-score: 0.238; activity call: inactive
Tbkbp1 (GeneID 73174) #2 → p65 translocation z-score: -0.599; activity call: inactive
Tbkbp1 (GeneID 73174) #3 → p65 translocation z-score: 0.972; activity call: inactive
Tbkbp1 (GeneID 73174) #4 → p65 translocation z-score: -0.305; activity call: inactive
Tbkbp1 (GeneID 73174) #5 → p65 translocation z-score: 1.27; activity call: inactive
Tbkbp1 (GeneID 73174) #6 → p65 translocation z-score: 0.32; activity call: inactive
Cd14 (GeneID 12475) #1 → p65 translocation z-score: -2.24; activity call: active
Cd14 (GeneID 12475) #2 → p65 translocation z-score: -2.38; activity call: active
Cd14 (GeneID 12475) #3 → p65 translocation z-score: -1.82; activity call: active
Cd14 (GeneID 12475) #4 → p65 translocation z-score: -1.32; activity call: inactive
Cd14 (GeneID 12475) #5 → p65 translocation z-score: -1.62; activity call: active
Cd14 (GeneID 12475) #6 → p65 translocation z-score: -0.484; activity call: inactive
